Data taken from ChEMBL document CHEMBL3988442, “University of Dundee, Small-Polar-MMV Screening Library” (2021).

Protein sequences, listed by entry. Tags and fused reporters are not part of them. Residues count along the entry.
UniProt P9WPC5, whole entry: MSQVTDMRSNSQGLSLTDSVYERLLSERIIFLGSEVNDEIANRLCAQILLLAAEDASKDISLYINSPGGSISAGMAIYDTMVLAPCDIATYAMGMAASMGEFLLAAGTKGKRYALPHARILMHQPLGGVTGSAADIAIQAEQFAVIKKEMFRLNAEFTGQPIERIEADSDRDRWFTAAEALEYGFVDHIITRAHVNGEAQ
UniProt P9WPC3, whole entry partner: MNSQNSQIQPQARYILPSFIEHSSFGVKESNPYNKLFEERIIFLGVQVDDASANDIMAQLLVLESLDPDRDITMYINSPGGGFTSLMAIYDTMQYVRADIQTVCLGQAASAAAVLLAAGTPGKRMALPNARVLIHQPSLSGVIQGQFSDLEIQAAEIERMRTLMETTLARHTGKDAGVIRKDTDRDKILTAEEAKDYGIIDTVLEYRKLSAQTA
UniProt Q4DA54, 1-478: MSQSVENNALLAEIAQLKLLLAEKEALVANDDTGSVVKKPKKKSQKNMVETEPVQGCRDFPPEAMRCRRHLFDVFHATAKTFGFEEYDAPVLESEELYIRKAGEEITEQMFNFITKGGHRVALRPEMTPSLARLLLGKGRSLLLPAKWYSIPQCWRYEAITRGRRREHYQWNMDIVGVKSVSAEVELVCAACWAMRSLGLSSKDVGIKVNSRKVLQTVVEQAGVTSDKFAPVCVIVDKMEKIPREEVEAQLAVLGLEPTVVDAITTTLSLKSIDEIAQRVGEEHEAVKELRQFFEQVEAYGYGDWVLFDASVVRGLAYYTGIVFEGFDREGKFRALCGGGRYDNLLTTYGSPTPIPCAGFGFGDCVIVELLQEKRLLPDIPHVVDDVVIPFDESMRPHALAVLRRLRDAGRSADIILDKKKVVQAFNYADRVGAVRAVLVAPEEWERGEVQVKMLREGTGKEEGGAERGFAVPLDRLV
UniProt P9WNZ1, whole entry: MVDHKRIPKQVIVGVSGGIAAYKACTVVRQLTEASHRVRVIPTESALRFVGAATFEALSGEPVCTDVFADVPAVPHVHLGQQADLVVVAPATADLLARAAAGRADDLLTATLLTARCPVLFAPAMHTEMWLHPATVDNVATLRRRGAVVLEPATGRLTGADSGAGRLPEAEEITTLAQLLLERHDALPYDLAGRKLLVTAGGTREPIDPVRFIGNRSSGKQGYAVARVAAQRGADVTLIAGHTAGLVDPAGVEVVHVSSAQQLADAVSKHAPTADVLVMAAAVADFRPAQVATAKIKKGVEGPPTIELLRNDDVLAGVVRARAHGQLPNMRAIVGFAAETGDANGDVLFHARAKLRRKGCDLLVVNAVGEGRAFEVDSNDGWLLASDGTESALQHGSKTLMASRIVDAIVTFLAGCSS

Each number is a percent effect as filed. The record does not define 0% and 100%; most values in the screen are far below 50% and negative numbers occur (in some assays of this library far below -100). This is an unselected part of the compounds tested. Two or more numbers in one place are separate tests of the same structure; such repeats can differ widely. A dash means the value is not listed here; it may have been measured.

A: 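ClpP1P2, Mycobacterium tuberculosis (UniProt P9WPC5 and UniProt P9WPC3). Protease assay of ClpP1P2, read by the AMC dye that it sets free. Concentration: 50 µM. Direction is inferred from only a few compounds that gave an IC50; most scored high, so higher reads as stronger inhibition. Most other retested compounds had strongly negative values. Size under these conditions: about 69,000 compounds, about 10 of them at 50% or above in at least one test.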
B: 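Assay of Toxoplasma gondii numbers, read through their beta-galactosidase reporter with a colour substrate. Compounds at 10 µM. Higher reads as fewer parasites (inferred from which compounds were picked for retests). Size under these conditions: about 67,000 compounds, about 260 of them at 50% or above in at least one test.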
C: 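Cell assay of Leishmania donovani living inside macrophages; the read-out is not stated. Concentration: 30 µM. Direction is inferred from retests: higher values go with stronger inhibition. Size under these conditions: about 69,000 compounds, about 1,000 of them at 50% or above in at least one test.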
D: 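Histidine-tRNA ligase, Trypanosoma cruzi CL Brener (UniProt Q4DA54). Enzyme assay of histidyl-tRNA synthetase; the read-out is not stated. Tested at 30 µM. The record gives no direction; compounds that gave an IC50 in retests scored well above the rest, so higher reads as stronger inhibition. About 69,000 compounds were tested under these conditions; 0.045% (about 31) showed 50% or more at least once.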
E: 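Coenzyme A biosynthesis protein CoaBC, Mycobacterium tuberculosis (UniProt P9WNZ1). Enzyme assay of CoaBC with a phosphate dye (Biomol Green) read at 650 nm. Compounds at 30 µM. Higher reads as stronger inhibition, judged from the few compounds that gave an IC50. Most strong results did not repeat in a second test. About 67,000 compounds were tested under these conditions; 0.06% (about 40) showed 50% or more at least once.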

SMILES	A	B	C	D	E
O=C(NCC(F)(F)F)c1nnn(-c2ccccc2)c1C(F)(F)F	-10.23	-8.991	-22.45	3.797	3.365
Cc1nc(CN2C[C@@H]3CN(C(=O)CC(F)(F)F)C[C@@H]3C2=O)cs1	-12.35	-	-	1.97	1.523
CN(Cc1cccnc1)C1CC2(CCN(c3ncccn3)CC2)C1.O=C(O)C(F)(F)F.O=C(O)C(F)(F)F	-	-19.36	4.259	-	-
CO[C@@H]1CCN(S(=O)(=O)c2cn(C)cn2)[C@H]1Cc1ccccc1	-6.524	0.9852	19.44	7.463	-4.516
CN1CCC/C1=N\S(=O)(=O)c1ccc(NC(=O)c2ccco2)cc1	10.93	23.74	-21.5	1.994	-10.72
O=C(C1CCCO1)N1CCCn2c(nnc2Cn2ccnc2)C1.O=C(O)C(F)(F)F (centres unmarked)	-	-2.104	8.917	-	-
CCCC(=O)N(CCCN1CCOCC1)c1nc2c(F)cccc2s1.Cl	-	0.6435	-1.611 & 13.63	-	-
Cc1cnc(C(=O)N2C[C@@H](NS(C)(=O)=O)[C@@H]3OCCC[C@@H]32)cn1	9.412	-	-	7.563	-5.071
O=C(NCCN1CCOCC1)c1ccnn1-c1ccc2ccccn12	11.65	-	-	5.063	-
c1cc(CNCCc2cn3ccccc3n2)c2c(c1)OCCCO2	-8.493	11.38	10.44	7.216	-2.83
CS(=O)(=O)N1CC(c2nc[nH]n2)c2cc(C(=O)NC3CC3)ccc21 (centres unmarked)	2.255	-1.937	33.72	3.226	-3.865
O=C(NC1CCC1)C1=NOC2(CCN(Cc3ccc(F)cc3)C2)C1 (centres unmarked)	2.755	3.27	17.51	0.8264	1.681
CC(C)N(C)Cc1cnc2n1CCN(Cc1ccc(F)cc1)C2	-6.141	-	-	8	3.03
CC(C)CCNC(=O)CNC(=O)N1CCc2c([nH]c3ccc(Cl)cc23)C1	-1.462	-3.697	29.19	5.263	3.283
CCc1c(C(=O)N2CCNC(=O)C2)cnn1C(C)(C)C	-4.883	-9.599	15.86	6.286	1.673
CCCn1ncc(C(=O)NCCc2[nH]nc3c2CCCC3)c1C	-4.693	-17.31	8.589	0	-0.8696
[H][C@]12CCCCN1CCC[C@H]2CNC(=O)Cn1ccc2cc(Br)ccc21	-	29.25	50.79	-	-
CCCC(C)NC(=O)c1ccc(-c2ccco2)[nH]c1=O (centres unmarked)	-97.68	-9.112	4.02	9.497	2.016
O=C(NCc1nncn1C1CCCCC1)C1COc2ccccc2O1 (centres unmarked)	1.407	20.69	1.901	1.288	6.1
CC(C)C(=O)N1CCN(C(=O)c2cc(Cl)no2)[C@H]2CS(=O)(=O)C[C@H]21	-12.98	-	-	2.041	-0.8485
CCN1CC(C(=O)NCc2ccc3c(c2)nc(C)n3C)CCC1=O (centres unmarked)	-0.7741	17.12	73.45	-4.95	-1.09
Cn1c(C2CC2)nc2c1CCN(CCS(=O)(=O)c1ccccc1)C2	-1.366	9.874	47.12	-2.642	7.432
Cc1ccc(OCc2occc2C(=O)N2CC[C@H](CO)[C@@H](O)C2)cc1	-5.921	-6.245	4.022	2.679	0.8805
Cc1cccc2ncn(C(C)Cn3cccn3)c(=O)c12 (centres unmarked)	-13.33	5.282	11.4	0.8	-7.576
CC(Cn1ccnc1)NS(=O)(=O)c1ccc(C#N)c(Cl)c1 (centres unmarked)	-4.479	1.23	-11.24	13.79	-2.554
COc1ccc(C(=O)N(C)Cc2cccc(C#N)c2)c(OC)c1OC	-5.634	7.252	12.13	-3.743	2.277
COc1c(CNCc2ccc(C(=O)N3CCCC3)cc2)c(C)nn1C.Cl	-	6.778	33.16	-	-
CCN(CCNC(=O)C1CCCN(C(C)=O)C1)c1ccccc1C (centres unmarked)	1.834	3.048	14.11	6.897	-4.126
CN1CC(C(=O)NCc2ccnc(-n3cccn3)c2)CC1=O (centres unmarked)	4.214	-5.321	7.626	5.572	6.053
COc1ccccc1N1CCCC(Nc2ncccn2)C1=O (centres unmarked)	2.447	-4.104	10.72	5.882	0.4878
N#Cc1cccc(OC2CCN(C(=O)c3cncc(O)c3)CC2)c1	2.012	4.356	-24.88	3.922	-3.415
CCCC1(CO)CCCN(c2ncnc3c2c(C)nn3C)C1 (centres unmarked)	-8.367	-5.282	-7.843	8.8	8.442
Cc1nn(C)c2ncc(NC(=O)N3CCNC(=O)C3)cc12	-9.622	4.629	-12.69	0.8772	1.04
O=C(O)C(F)(F)F.[H][C@]12CCC(=O)N(c3cccnc3)[C@@]1([H])CCN2C(=O)c1ccc(C#N)cc1	-	-0.5917	9.908	-	-
Cc1cc(-c2c(C)c(-c3cnn(C)c3)nc(N)c2C#N)oc1C	-35.47	-0.02789	2.823	10.87	3.271
COCCNC(=O)c1cnc(C)nc1C	19.91	1.96	4.097	-4.938	-1.595
COc1cccc(-c2n[nH]cc2CNC2CCN(C3CC3)CC2)c1	10.93	-	-	-2.632	4.277
Cc1ccc(C(=O)N2CCCC(N)CC2)cc1N1CCNC1=O (centres unmarked)	-5.581	-0.9377	3.934	-24.58	3.599
c1cnc(N2CCC(OCC3CCCCO3)CC2)nc1 (centres unmarked)	-3.299	-16.65	-28.65	2.679	-0.1258
NC(=O)C1CN(C(=O)C2(c3ccc(F)cc3F)CCCC2)CCO1 (centres unmarked)	-1.413	-9.758	20.29	1.087	5.04
CCOC(=O)C1CC2(CCCC2)N2CCC(=O)N12 (centres unmarked)	-7.001	-39.31	-7.587	3.371	0.4843
Cc1ccc(N2N=C(C(=O)N(C)Cc3ccco3)NCC2=O)cc1	5.974	-3.612	26.23	0	6.061
CC(C)C(=O)N1CCCc2c(cnn2-c2ccccc2)C1	-3.855	-0.6911	-28.47	7.28	4.854
Cc1cncc(C2CCCN(C(=O)c3ccc(C)[nH]c3=O)C2)n1 (centres unmarked)	4.18	-6.199	-2.382	0	7.199
CNc1cncc(C2CCCN2C(=O)c2ccc3c(c2)CCC3)n1 (centres unmarked)	-29.28	-5.372	-4.098 & -4.869	10.99	-0.2427
c1ccc(-c2noc(C3CCN(CCn4cccn4)CC3)n2)cc1	-1.406	-5.708	28.32	-2.809	13.08
COc1cccc(NC(=O)CC2Cn3ncnc3NC2=O)c1 (centres unmarked)	6.185	4.35	9.029	2.959	-3.158
CCCc1nc(C)c(C(=O)NCCN2CCCCC2)s1	2.719	7.379	20.27	8.832	-6.166
CCc1nc(C2CCCN2Cc2nnc(C3CC3)o2)no1 (centres unmarked)	-21.48	17.04	23.55	5.539	11.08
O=C(NCCN1CCCCCC1)c1cccc(Cl)c1Cl	-3.31	-5.757	13.22	13.92	1.442
Cl.Cn1cc([C@@H]2CN(S(=O)(=O)c3cccs3)C[C@H]2N)c2ccncc21	-	-21.87	-15.27	-	-
CCCNC(=O)CCOc1cccc(F)c1	-8.087	-14.2	4.128	5.294	6.905
O=C(NCc1ccco1)[C@@H]1CC[C@@H]2[C@@H](CCN2CC2CC2)O1	-4.555	-	-	4.95	-12.23
CN(C)c1cc2c(nn1)CCN(C(=O)c1cc3c(s1)CCCC3)C2	0.116	-1.493	21.39	10.2	10.11
Cc1cc(NCC(=O)NCC(F)(F)F)nc(-c2ccncc2)n1	-2.99	9.368	14.08	5.882	4.147
CN(C)C(=O)CN1CC[C@H]2CN(C3CCOCC3)C[C@@H]2C1=O	-11.71	-	-	6.796	7.379
CCS(=O)(=O)N(C)C1CCN(C(=O)c2ccc(Cl)cc2)CC1	-1.787	1.768	-9.034	3.448	-4.365
Cn1cc(C2=NOC(C(=O)NC3(c4ccccc4)CCCC3)C2)cn1 (centres unmarked)	-17.98	3.588	15.29	4.215	-4.545
c1ccc(CN2CC[C@H]3CO[C@H](CNc4ncccn4)[C@H]3C2)cc1	-18.9	-	-	6.667	0.1233
CS(=O)(=O)Cc1cc(Cl)c2c(c1)OCCCO2	3.087	6.477	-8.656	-0.578	9.504
O=C(O)C(F)(F)F.O=C(O)C(F)(F)F.[H][C@]12CCN(Cc3cccs3)[C@@]1([H])CC[C@H](COCc1ccccn1)O2	-	-7.64	21.95	-	-
CC(=O)Nc1nc(C(=O)NCc2ccc(N3CCCC3)nc2)cs1	-12.27	-6.476	7.198	4.507	7.506